The text below walks through data of PubChem BioAssay AID1487 (National Center for Advancing Translational Sciences (NCATS), 2009).

The experiment in a line: qHTS Assay for Modulators of Lamin A Splicing. The settings on record: HeLa LMNA splicing GFP/RFP minigene ratio, 48 h. The procedure, abridged: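 S3 HeLa cells stably expressing lamin A-EGFP splicing minigene plus DsRed2, 600 cells/well, 48 h compound exposure at 37C. Laser-scanning cytometry; analysed as GFP (500-530 nm)/RFP (575-640 nm) total intensity ratio; 0.5% DMSO vehicle.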

The mark [1] stands for this setting: measured here: RFP viability control channel.
Where [2] appears, read: measured here: GFP splicing reporter channel.

Structures are written as SMILES. The list shows a part of the results. Shown are side measurements of this screen, not its main read-out; they come without a call. Most of these compounds were active or inconclusive in the main read-out, so they are no random draw. Words in brackets tell the shape of the fitted curve; partial curves, single points and poor fits give uncertain potencies.

Regarding `CCOC(=O)c1c(-c2ccccc2)csc1NC(=S)N(CC)CC`, under setting [1], the AC50 was 28.2 µM [rising, single point]. Consider `O=C(Nc1cccnc1)Nc1ccc(F)c(Cl)c1`, for which the AC50 under setting [1] is 25.1 µM [rising, single point]. For `Cc1ccc(C(=O)OC2=C(C(=O)c3ccccc3)N(C)S(=O)(=O)c3ccccc32)cc1`, the AC50 under setting [2] is 0.0794 µM [falling, full curve, poor fit]. With `COc1cccc(-c2cc(=O)c3cc(NC(=O)c4ccc(N(C)C)cc4)ccc3[nH]2)c1`, the AC50 under setting [2] was 1.58 µM [falling, single point]. Consider `Nc1c(NC(=O)CC[n+]2ccccc2)cccc1[N+](=O)[O-]`, for which the AC50 under setting [2] was 35.5 µM [rising, single point] and the AC50 under setting [1] was 35.5 µM [rising, single point]. As for `CC(=O)[C@@H]1CC[C@@H]2[C@@H]3C[C@H](C)C4=CC(=O)CC[C@@]4(C)[C@H]3[C@H](O)C[C@]21C`, the AC50 is 8.91 µM [rising, partial curve] under setting [2] and 7.08 µM [rising, partial curve] under setting [1]. As to `CCc1ccc(OCC(=O)NC(NC(=S)Nc2ccc(C)cc2C)C(Cl)(Cl)Cl)cc1` (centres undefined), the AC50 was 14.1 µM [falling, single point] under setting [2] and 11.2 µM [falling, partial curve] under setting [1]. As for `CCCCOc1ccc(-c2nnc(-c3ccco3)o2)cc1`, the concentration at half-maximal activity (AC50) under setting [2] was 12.6 µM [rising, partial curve]. Turning to `O=C(Nc1ccc(Oc2ccccc2)cc1)c1ccc(F)c(S(=O)(=O)N2CCN(c3cccc(Cl)c3)CC2)c1`, the AC50 under setting [2] is 0.447 µM [falling, full curve, poor fit]. In the case of `S=c1[nH]nc(-c2cccnc2)n1/N=C/C=C/c1ccco1`, the AC50 under setting [1] was 0.00398 µM [falling, full curve, poor fit].

In the case of `CN(C)c1cccc(C(=O)NCc2ccccc2Cl)c1`, the AC50 is 35.5 µM [rising, single point] under setting [2] and 28.2 µM [rising, single point] under setting [1]. As for `CC#CCN1c2ccccc2[C@]23C[C@@H](C(=O)OC)N(C(=O)c4cc(C)oc4C)C2=NC(C(=O)OC)=C(C(=O)OC)[C@H]13`, the AC50 reads like this: under setting [2], 3.16 µM [rising, single point]; under setting [1], 3.16 µM [rising, single point].

As to `O=C(c1cc(C(=O)N2CCOCC2)c2nc3ccccc3n2c1)c1ccccc1O`, the AC50 under setting [2] was 10 µM [falling, partial curve, poor fit]. For `N#CC1=C(SCc2ccc(C#N)cc2)N=C(N)C(c2nc(-c3ccccc3)cs2)C12CCCCC2` (centres undefined), the concentration at half-maximal activity (AC50) under setting [1] was 11.2 µM [rising, single point]. Turning to `Cc1ccc(C)c(N2C(=O)N(Cc3ccccc3C)c3ccccc3S2(=O)=O)c1`, the AC50 under setting [1] was 0.00447 µM [falling, full curve, poor fit]. Consider `CC(C)(C)NC[C@H](O)COc1cccc2c1C[C@@H](O)[C@@H](O)C2`, for which the AC50 is, setting by setting: under setting [2], 0.251 µM [falling, single point]; under setting [1], 0.398 µM [falling, single point]. In the case of `CCOc1cccc2cc(-c3nnc(NCc4ccc5c(c4)OCO5)s3)c(=O)oc12`, the AC50 under setting [1] was 3.16 µM [rising, single point]. As for `Cc1ccc(NC(=O)Cc2ccc(NC(=O)N3CCCCc4ccccc43)cc2)cc1Cl`, the AC50 runs as follows: under setting [2], 0.1 µM [falling, full curve]; under setting [1], 1.58 µM [falling, partial curve, poor fit]. On to `O=C(O)/C=C/c1ccc(O)c(O)c1`, for which the concentration at half-maximal activity (AC50) by setting is: under setting [2], 2.82 µM [rising, single point]; under setting [1], 2.82 µM [rising, full curve]. Turning to `Cc1cc(C)c(NC(=O)/C(=C/c2ccccc2)c2ccccc2)c(C)c1`, the AC50 is 17.8 µM [rising, single point] under setting [2] and 28.2 µM [rising, single point] under setting [1]. Take `CCSc1ncc(/C=N/Nc2ccccc2)n1C`: the concentration at half-maximal activity (AC50) is, setting by setting: under setting [2], 11.2 µM [rising, single point]; under setting [1], 12.6 µM [rising, partial curve]. As to `CS(=O)(=O)c1ccc(C(=O)Nc2ccc(N3CCCCC3)cc2)c(Cl)c1`, the half-maximal activity concentration (AC50) under setting [2] was 0.891 µM [rising, full curve, poor fit]. Turning to `Cc1cccc(C)c1-n1ncc(C(=O)NCCCN2CCCCC2)c1C1CCN(C(=O)OC(C)(C)C)CC1`, under setting [1], the half-maximal activity concentration (AC50) was 35.5 µM [rising, partial curve]. Consider `COc1ccc(C2CC(C(F)(F)F)n3nc(C(=O)NCc4c(C)nn(C)c4C)c(Cl)c3N2)cc1` (centres undefined), for which the AC50 under setting [1] was 11.2 µM [rising, partial curve]. Regarding `O=[N+]([O-])c1ccc(/C=C/C2=NN(c3ccccc3)C(c3ccco3)C2)cc1` (centres undefined), the half-maximal activity concentration (AC50) under setting [1] was 15.8 µM [rising, partial curve].

As to `C/C=C/C=C/C(=O)OCC(=O)Nc1ccc(Cl)cc1`, the AC50 under setting [1] is 0.562 µM [falling, partial curve, poor fit]. On to `CCCNC(=O)COC(=O)/C=C/c1ccc(C)o1`, for which the half-maximal activity concentration (AC50) under setting [1] is 0.398 µM [falling, partial curve, poor fit]. For the compound `CCN(CC)S(=O)(=O)c1ccc(/C=C/C(=O)Nc2ccc(Br)cc2F)cc1`, the AC50 under setting [1] is 3.55 µM [rising, full curve].

Take `O=C(CCCn1c(=O)[nH]c2ccsc2c1=O)Nc1ccc(F)cc1`: the AC50 is 1.12 µM [falling, full curve, poor fit] under setting [2] and 0.00398 µM [falling, full curve] under setting [1].

Turning to `CCc1ccc(OCC(=O)Nc2cccc3c2CCCC3)cc1`, the AC50 under setting [1] was 11.2 µM [rising, single point]. For `O=c1[nH]c(CSc2ncnc3sc(-c4ccccc4)cc23)nc2ccccc12`, the AC50 runs as follows: under setting [2], 0.794 µM [falling, partial curve]; under setting [1], 1.58 µM [falling, partial curve].

Take `CCc1c(C(=O)N/N=C/c2cn[nH]c2-c2ccc(F)cc2)csc1C`: the AC50 was 14.1 µM [rising, partial curve, poor fit] under setting [2] and 7.08 µM [rising, partial curve, poor fit] under setting [1].

Regarding `c1ccc(Nc2nc(-c3ccoc3)nc3ccccc23)cc1`, the AC50 under setting [2] was 11.2 µM [falling, partial curve] and the concentration at half-maximal activity (AC50) under setting [1] was 15.8 µM [falling, single point]. As to `CCOc1ccc(-c2nnc(SCC(=O)NC3CCCCC3)nc2-c2ccc(OCC)cc2)cc1`, the AC50 under setting [1] is 0.02 µM [rising, full curve, poor fit]. Turning to `C=CCn1c(Cc2cccc3ccccc23)n[nH]c1=S`, the AC50 is, setting by setting: under setting [2], 12.6 µM [rising, partial curve, poor fit]; under setting [1], 10 µM [rising, partial curve].

On to `Cc1ccc(-c2nc3cc(NC(=O)C(C)C)ccc3o2)cc1C`, for which the AC50 under setting [1] is 22.4 µM [rising, partial curve].

In the case of `Clc1ccc(Cn2c(CN3CCCC3)nc3ccccc32)cc1`, the AC50 under setting [2] is 0.355 µM [falling, full curve, poor fit] and the AC50 under setting [1] was 0.158 µM [falling, full curve]. As for `CCn1c(SCC(=O)NCc2ccc(F)cc2)nc2c(c1=O)SC(C)C2` (centres undefined), the AC50 under setting [1] was 0.0355 µM [rising, full curve, poor fit]. For the compound `CCOC(=O)N1CCN(CC(O)COc2ccccc2C(C)CC)CC1` (centres undefined), under setting [1], the AC50 was 0.316 µM [rising, full curve, poor fit]. Consider `COc1ccc2cc(Br)ccc2c1CC(=O)NC(C)C`, for which the AC50 under setting [1] is 15.8 µM [falling, single point].

Turning to `O=C(C1CCCN(S(=O)(=O)Cc2ccccc2)C1)N1CCC(Cc2ccccc2)CC1` (centres undefined), the AC50 runs as follows: under setting [2], 17.8 µM [rising, single point]; under setting [1], 15.8 µM [rising, single point].

As to `CCOC(=O)c1c(NC(=O)CCN2CCOCC2)sc(C)c1-c1ccccc1`, the concentration at half-maximal activity (AC50) runs as follows: under setting [2], 15.8 µM [falling, single point]; under setting [1], 12.6 µM [falling, partial curve]. As to `O=C(NC1CCCC1)c1ccc2c(=O)n(Cc3ccccc3)c(SCc3ccc([N+](=O)[O-])cc3)nc2c1`, under setting [2], the AC50 was 0.398 µM [falling, full curve, poor fit]. `COc1cccc(CNC(=O)CN2C(=O)CCc3cc(S(=O)(=O)N4CCOCC4)ccc32)c1`: under setting [1], the half-maximal activity concentration (AC50) was 10 µM [rising, partial curve, poor fit]. Turning to `Nn1c(-c2cccs2)nc2sc3c(c2c1=O)CCCC3`, the AC50 was 35.5 µM [rising, single point] under setting [2] and 35.5 µM [rising, single point] under setting [1]. Turning to `Cc1ccc(/C=N/N2C(=S)SC(C)(C)C2N(O)C(=O)Nc2ccc([N+](=O)[O-])cc2)cc1` (centres undefined), the half-maximal activity concentration (AC50) by setting is: under setting [2], 12.6 µM [falling, single point]; under setting [1], 20 µM [falling, single point].

`COC(=O)CCC(=O)NNC(=O)Cc1ccccc1`: the AC50 under setting [1] was 3.55 µM [falling, partial curve, poor fit].

On to `Cc1cccc(C(=O)Oc2ccccc2/C=N/NC(=O)c2ccc(NC(=O)C(C)(C)C)cc2)c1`, for which the AC50 under setting [1] is 3.16 µM [rising, full curve]. For the compound `C=CCNC(=O)c1onc(CSc2cccc(C)c2)c1C(=O)O`, the AC50 under setting [2] was 0.0158 µM [falling, partial curve].

As to `CCc1c(C)sc2c1CCN(Cc1ccccc1)C2c1ccccc1` (centres undefined), the AC50 under setting [1] was 35.5 µM [rising, single point]. Regarding `O=C(CSc1ccccc1)Nc1cccc(S(=O)(=O)N2CCCC2)c1`, under setting [1], the AC50 was 3.98 µM [rising, full curve, poor fit]. On to `O=C(COc1ccc(Cl)cc1)NCc1nnc2c3ccccc3c(-c3ccccc3)nn12`, for which the concentration at half-maximal activity (AC50) under setting [2] was 14.1 µM [rising, partial curve, poor fit] and the AC50 under setting [1] was 20 µM [rising, partial curve, poor fit]. On to `Cc1cc(C)c(C(=O)COC(=O)c2cccnc2Cl)c(C)c1`, for which the AC50 under setting [1] was 0.708 µM [rising, partial curve].

For orientation: AC50 means the concentration giving half of the maximal activity seen.
